Data reported in the supplement of paper PMC10849652.
The other results are listed elsewhere or left out.

Amino acid sequences for entries named in this document (tags omitted). A change or cut given only in a name is not applied to a line headed by its entry.
UniProt Q02241: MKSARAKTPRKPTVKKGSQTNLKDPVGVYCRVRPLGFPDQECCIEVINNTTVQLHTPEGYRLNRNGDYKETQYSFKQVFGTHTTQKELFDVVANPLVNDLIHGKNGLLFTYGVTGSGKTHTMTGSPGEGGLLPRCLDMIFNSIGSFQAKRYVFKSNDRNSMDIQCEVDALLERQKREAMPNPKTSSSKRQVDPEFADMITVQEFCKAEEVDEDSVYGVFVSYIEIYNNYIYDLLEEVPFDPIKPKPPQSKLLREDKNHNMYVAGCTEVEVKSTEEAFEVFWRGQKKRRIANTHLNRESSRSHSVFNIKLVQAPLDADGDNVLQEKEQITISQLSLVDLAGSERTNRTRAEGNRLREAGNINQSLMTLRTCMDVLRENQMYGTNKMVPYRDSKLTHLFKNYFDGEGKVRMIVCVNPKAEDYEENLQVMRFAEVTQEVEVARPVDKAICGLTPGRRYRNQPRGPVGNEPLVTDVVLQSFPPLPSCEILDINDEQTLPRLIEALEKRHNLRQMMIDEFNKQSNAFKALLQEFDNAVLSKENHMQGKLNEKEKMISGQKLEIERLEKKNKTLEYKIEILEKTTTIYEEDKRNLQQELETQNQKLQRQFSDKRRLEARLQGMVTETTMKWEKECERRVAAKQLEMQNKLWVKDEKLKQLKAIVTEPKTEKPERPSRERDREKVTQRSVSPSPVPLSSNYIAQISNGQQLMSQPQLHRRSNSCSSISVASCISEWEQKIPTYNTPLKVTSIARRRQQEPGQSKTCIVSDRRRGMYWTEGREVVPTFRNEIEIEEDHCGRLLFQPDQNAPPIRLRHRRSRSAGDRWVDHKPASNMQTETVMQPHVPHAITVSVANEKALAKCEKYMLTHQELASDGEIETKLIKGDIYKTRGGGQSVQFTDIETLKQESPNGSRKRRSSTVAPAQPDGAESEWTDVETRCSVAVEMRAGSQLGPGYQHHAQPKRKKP
UniProt Q12840: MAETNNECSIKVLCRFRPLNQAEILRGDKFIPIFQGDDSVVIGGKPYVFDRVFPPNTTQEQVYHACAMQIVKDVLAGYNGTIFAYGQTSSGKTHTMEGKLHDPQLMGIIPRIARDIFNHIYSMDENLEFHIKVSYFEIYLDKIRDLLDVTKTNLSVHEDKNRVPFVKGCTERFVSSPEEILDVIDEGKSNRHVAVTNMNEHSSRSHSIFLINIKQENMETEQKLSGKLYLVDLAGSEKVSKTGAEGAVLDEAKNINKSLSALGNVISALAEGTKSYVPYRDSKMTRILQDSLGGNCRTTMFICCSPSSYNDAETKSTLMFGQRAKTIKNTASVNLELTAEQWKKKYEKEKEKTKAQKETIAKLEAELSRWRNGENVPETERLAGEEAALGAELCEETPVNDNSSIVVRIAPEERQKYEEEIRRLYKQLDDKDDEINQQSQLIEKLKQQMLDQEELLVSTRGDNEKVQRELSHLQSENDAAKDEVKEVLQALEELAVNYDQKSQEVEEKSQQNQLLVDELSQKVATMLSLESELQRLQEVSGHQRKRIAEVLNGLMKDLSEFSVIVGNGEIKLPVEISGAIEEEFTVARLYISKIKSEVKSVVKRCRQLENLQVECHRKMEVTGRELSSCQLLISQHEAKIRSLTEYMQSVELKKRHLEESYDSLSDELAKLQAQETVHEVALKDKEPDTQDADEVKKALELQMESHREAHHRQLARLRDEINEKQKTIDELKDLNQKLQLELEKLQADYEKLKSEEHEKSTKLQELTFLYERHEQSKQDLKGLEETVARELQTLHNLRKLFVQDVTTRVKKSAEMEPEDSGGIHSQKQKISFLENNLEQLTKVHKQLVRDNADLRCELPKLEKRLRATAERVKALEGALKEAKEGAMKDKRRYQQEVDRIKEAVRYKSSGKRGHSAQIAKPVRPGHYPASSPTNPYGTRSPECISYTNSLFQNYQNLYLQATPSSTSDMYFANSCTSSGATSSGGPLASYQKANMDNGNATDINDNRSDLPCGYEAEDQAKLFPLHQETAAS
UniProt Q9BXK1: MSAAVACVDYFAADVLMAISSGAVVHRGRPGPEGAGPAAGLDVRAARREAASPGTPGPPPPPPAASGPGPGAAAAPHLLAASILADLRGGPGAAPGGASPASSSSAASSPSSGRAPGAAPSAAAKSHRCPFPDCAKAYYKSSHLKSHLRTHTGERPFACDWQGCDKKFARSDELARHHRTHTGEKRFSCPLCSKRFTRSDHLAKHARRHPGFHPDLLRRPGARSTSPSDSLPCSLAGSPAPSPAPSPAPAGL
UniProt Q8IZA0: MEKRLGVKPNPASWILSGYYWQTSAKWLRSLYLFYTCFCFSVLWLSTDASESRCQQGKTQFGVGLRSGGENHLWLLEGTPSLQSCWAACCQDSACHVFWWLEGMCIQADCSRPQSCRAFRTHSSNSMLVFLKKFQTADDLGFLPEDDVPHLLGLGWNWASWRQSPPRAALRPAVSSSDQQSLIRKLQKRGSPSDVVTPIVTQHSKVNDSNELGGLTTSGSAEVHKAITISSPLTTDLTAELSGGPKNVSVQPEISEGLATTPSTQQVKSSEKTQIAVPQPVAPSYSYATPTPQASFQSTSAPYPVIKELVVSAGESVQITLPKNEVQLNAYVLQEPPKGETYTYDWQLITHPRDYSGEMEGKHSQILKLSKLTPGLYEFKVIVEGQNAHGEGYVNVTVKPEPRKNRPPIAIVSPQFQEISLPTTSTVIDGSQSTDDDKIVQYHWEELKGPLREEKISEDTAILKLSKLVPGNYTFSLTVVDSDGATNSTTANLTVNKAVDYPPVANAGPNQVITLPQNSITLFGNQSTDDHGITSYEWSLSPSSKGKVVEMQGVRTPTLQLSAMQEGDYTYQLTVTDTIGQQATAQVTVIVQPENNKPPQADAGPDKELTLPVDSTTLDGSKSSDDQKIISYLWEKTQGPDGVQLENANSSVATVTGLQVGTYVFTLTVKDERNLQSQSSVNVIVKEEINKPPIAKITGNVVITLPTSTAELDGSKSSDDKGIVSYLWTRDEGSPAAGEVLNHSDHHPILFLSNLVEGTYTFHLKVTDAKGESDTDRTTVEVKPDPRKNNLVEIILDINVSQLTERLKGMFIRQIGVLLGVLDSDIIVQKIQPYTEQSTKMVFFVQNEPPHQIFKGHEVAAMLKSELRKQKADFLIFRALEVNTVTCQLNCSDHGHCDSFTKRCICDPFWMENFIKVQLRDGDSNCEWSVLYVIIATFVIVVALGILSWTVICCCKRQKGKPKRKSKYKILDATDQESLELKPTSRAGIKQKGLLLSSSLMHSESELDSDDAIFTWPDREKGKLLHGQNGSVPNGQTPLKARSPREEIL
UniProt P50748: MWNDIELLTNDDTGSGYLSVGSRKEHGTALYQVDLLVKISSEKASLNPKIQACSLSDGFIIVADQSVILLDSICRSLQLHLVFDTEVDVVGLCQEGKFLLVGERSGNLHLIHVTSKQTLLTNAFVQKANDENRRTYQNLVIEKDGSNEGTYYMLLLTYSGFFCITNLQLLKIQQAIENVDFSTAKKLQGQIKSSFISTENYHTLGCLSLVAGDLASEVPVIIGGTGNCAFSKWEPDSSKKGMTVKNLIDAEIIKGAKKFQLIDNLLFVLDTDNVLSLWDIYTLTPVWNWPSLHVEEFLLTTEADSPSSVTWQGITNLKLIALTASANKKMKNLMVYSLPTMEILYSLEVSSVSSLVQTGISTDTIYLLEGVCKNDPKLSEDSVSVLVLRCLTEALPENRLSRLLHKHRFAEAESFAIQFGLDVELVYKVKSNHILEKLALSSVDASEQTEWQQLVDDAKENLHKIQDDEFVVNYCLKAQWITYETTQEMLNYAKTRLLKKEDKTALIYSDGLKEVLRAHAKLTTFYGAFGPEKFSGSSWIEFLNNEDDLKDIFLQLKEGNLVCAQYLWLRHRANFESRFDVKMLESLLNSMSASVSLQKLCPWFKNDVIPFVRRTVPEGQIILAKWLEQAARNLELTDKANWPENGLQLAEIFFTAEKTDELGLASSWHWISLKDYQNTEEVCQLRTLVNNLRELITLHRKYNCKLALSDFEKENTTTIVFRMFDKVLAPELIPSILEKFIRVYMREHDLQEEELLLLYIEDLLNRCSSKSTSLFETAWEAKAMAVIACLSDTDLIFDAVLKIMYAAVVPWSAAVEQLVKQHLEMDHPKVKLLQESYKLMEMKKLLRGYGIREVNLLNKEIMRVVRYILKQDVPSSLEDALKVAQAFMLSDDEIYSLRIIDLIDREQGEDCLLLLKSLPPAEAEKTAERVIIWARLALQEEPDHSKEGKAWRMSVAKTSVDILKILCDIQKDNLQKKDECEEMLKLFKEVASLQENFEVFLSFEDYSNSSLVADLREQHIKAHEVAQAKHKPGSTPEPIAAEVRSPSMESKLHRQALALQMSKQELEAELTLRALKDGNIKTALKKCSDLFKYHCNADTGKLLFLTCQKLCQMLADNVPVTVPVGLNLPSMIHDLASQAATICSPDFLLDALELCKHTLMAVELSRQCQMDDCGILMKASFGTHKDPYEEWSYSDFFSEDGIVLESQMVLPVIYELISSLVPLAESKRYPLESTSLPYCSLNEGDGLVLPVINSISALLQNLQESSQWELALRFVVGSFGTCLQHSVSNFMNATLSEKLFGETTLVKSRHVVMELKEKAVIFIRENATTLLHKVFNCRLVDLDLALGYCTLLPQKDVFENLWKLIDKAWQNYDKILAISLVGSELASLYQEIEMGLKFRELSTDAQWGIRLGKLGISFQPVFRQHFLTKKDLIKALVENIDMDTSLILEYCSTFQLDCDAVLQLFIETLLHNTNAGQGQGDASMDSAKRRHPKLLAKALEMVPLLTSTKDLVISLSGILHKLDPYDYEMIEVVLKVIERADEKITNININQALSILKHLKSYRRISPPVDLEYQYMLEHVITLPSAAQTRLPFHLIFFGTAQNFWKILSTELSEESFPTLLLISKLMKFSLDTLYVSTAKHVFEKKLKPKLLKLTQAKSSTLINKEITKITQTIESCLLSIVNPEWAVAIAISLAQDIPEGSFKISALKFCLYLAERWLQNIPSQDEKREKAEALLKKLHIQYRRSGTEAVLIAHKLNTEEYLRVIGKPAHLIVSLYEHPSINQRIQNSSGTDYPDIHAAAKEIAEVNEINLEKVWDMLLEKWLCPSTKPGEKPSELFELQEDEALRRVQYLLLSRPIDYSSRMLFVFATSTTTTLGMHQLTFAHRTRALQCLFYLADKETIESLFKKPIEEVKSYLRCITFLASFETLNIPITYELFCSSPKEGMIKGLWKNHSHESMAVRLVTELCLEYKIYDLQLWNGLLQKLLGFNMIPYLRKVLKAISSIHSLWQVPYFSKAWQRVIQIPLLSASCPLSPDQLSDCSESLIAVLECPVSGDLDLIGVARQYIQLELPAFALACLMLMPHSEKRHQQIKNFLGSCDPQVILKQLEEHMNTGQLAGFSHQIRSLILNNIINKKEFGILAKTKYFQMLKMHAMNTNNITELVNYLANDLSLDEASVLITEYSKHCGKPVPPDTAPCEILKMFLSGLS
UniProt O43813, whole entry, looked up: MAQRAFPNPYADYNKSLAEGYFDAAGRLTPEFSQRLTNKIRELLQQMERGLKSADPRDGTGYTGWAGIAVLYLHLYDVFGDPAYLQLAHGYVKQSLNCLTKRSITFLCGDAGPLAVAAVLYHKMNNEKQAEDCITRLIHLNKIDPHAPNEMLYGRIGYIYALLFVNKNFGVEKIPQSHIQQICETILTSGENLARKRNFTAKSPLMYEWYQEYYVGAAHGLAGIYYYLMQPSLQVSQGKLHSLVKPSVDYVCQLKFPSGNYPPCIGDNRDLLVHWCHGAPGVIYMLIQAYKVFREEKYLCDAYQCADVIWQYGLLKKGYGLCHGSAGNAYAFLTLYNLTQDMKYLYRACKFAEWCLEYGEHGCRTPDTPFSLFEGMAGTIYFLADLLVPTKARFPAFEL
UniProt Q9UHA4, whole entry, looked up: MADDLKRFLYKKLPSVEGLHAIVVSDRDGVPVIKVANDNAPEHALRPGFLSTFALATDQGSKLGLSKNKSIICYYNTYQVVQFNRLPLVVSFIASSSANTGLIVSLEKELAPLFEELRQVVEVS

Compound: Cc1ccc(NC(=O)c2ccc(CN3CC[C@H](N(C)C)C3)c(C(F)(F)F)c2)cc1Nc1nccc(-c2cncnc2)n1 [bafetinib]
Test: log2 fold change, soluble protein after heating vs DMSO (PISA); higher = thermal stabilisation; K562 lysate, 10 uM; active = over 0.2 and 3.5 SD of the protein, either way, in both replicates (recomputed)
How it was run: (§1)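 K562 pellets were dounce-homogenised in PBS pH 7.4 containing 1 mM MgCl2, and the crude extract, at 1 mg/mL protein, was exposed to 10 μM compound for 30 min. Aliquots were heated for 3 min across 48°C-58°C, pooled, brought to 0.5% NP-40 at 4°C and spun at 21,000xg for 90 min, with the supernatant taken as soluble protein. TMTpro 16plex LC-MS/MS with equalised channel sums quantified that protein. Values are log-two fold changes in thermal stability relative to solvent controls, taken from duplicates.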

For KIF4B (UniProt Q2VIQ3), which log2 fold change is on record?
Its log2 fold change is inactive: -0.04.

KIF21A isoform 5 (UniProt Q7Z4S6) was tested. Which log2 fold change did it give?
Its log2 fold change is inactive: -0.019.

How did the log2 fold change turn out when KIF23 isoform 2 (UniProt Q02241) was run?
Its log2 fold change is inactive: -0.011.

For KIF5A (UniProt Q12840), which log2 fold change is on record?
Its log2 fold change is inactive: -0.007.

Which log2 fold change does the source give for KIF11 (UniProt P52732) here?
The log2 fold change was inactive: -0.014.

KNOP1 (UniProt Q1ED39) was tested. Which log2 fold change did it give?
Its log2 fold change is inactive: -0.06.

For KIAA0100 (UniProt Q14667), which log2 fold change is on record?
Its log2 fold change is inactive: -0.269.

KLHL36 (UniProt Q8N4N3) was tested. Which log2 fold change did it give?
Its log2 fold change is inactive: 0.022.

With KPNA2 (UniProt P52292) as the target, how does the log2 fold change read?
Its log2 fold change is inactive: -0.028.

With LARP1 (UniProt Q6PKG0) as the target, how does the log2 fold change read?
The log2 fold change was inactive: 0.005.

Which log2 fold change does the source give for KYAT1 (UniProt Q16773) here?
Its log2 fold change is inactive: -0.03.

How did the log2 fold change turn out when KLHL20 (UniProt Q9Y2M5) was run?
Its log2 fold change is inactive: -0.049.

Which log2 fold change does the source give for LAMP2 (UniProt P13473) here?
Its log2 fold change is inactive: -0.005.

With KIF4A (UniProt O95239) as the target, how does the log2 fold change read?
Its log2 fold change is inactive: -0.066.

KNSTRN (UniProt Q9Y448) was tested. Which log2 fold change did it give?
Its log2 fold change is inactive: 0.024.

Which log2 fold change does the source give for KLC4 isoform 3 (UniProt Q9NSK0) here?
The log2 fold change was inactive: -0.018.

For KHK isoform 2 (UniProt P50053), which log2 fold change is on record?
Its log2 fold change is inactive: 0.001.

Which log2 fold change does the source give for KLF16 (UniProt Q9BXK1) here?
Its log2 fold change is inactive: -0.23.

With KPTN (UniProt Q9Y664) as the target, how does the log2 fold change read?
Its log2 fold change is inactive: -0.08.

For KIAA0319L (UniProt Q8IZA0), which log2 fold change is on record?
The log2 fold change was inactive: -0.002.

How did the log2 fold change turn out when KIF13A isoform 4 (UniProt Q9H1H9) was run?
The log2 fold change was inactive: -0.016.

How did the log2 fold change turn out when KIAA1324L (UniProt A8MWY0) was run?
The log2 fold change was inactive: -0.082.

Which log2 fold change does the source give for KMT2D isoform 3 (UniProt O14686) here?
The log2 fold change was inactive: -0.002.

Which log2 fold change does the source give for KNTC1 (UniProt P50748) here?
Its log2 fold change is inactive: -0.076.

KIN (UniProt O60870) was tested. Which log2 fold change did it give?
The log2 fold change was inactive: -0.045.

For KIAA1522 isoform 2 (UniProt Q9P206), which log2 fold change is on record?
Its log2 fold change is inactive: 0.026.

Which log2 fold change does the source give for KIAA1191 (UniProt Q96A73) here?
Its log2 fold change is inactive: -0.013.

Which log2 fold change does the source give for KPNA6 (UniProt O60684) here?
Its log2 fold change is inactive: -0.013.

With KIF5B (UniProt P33176) as the target, how does the log2 fold change read?
Its log2 fold change is inactive: 0.015.

With KHDC4 (UniProt Q7Z7F0) as the target, how does the log2 fold change read?
Its log2 fold change is inactive: 0.032.

How did the log2 fold change turn out when KDSR (UniProt Q06136) was run?
The log2 fold change was inactive: -0.082.

How did the log2 fold change turn out when KLC1 isoform 6 (UniProt Q07866) was run?
Its log2 fold change is inactive: -0.008.

For LAMTOR4 (UniProt Q0VGL1), which log2 fold change is on record?
The log2 fold change was inactive: -0.043.

How did the log2 fold change turn out when LANCL1 (UniProt O43813) was run?
Its log2 fold change is inactive: -0.014.

LAMTOR3 (UniProt Q9UHA4) was tested. Which log2 fold change did it give?
Its log2 fold change is inactive: -0.093.

How did the log2 fold change turn out when LAP3 (UniProt P28838) was run?
The log2 fold change was inactive: 0.014.

How did the log2 fold change turn out when KIF15 (UniProt Q9NS87) was run?
Its log2 fold change is inactive: -0.025.

How did the log2 fold change turn out when KEAP1 (UniProt Q14145) was run?
The log2 fold change was inactive: 0.

With KYAT3 (UniProt Q6YP21) as the target, how does the log2 fold change read?
The log2 fold change was inactive: 0.

Compound: Cc1cccc(CC(=O)N2CCc3c2ccc(-c2cn(C)c4ncnc(N)c24)c3F)n1
Test: as above
How it was run: as §1

For KIF4B (UniProt Q2VIQ3), which log2 fold change is on record?
The log2 fold change was inactive: 0.035.

With KIF21A isoform 5 (UniProt Q7Z4S6) as the target, how does the log2 fold change read?
Its log2 fold change is inactive: -0.062.

Which log2 fold change does the source give for KIF23 isoform 2 (UniProt Q02241) here?
Its log2 fold change is inactive: 0.013.

For KIF5A (UniProt Q12840), which log2 fold change is on record?
The log2 fold change was inactive: -0.025.

How did the log2 fold change turn out when KIF11 (UniProt P52732) was run?
Its log2 fold change is inactive: 0.063.

How did the log2 fold change turn out when KNOP1 (UniProt Q1ED39) was run?
Its log2 fold change is inactive: -0.011.

How did the log2 fold change turn out when KIAA0100 (UniProt Q14667) was run?
The log2 fold change was inactive: 0.188.

KLHL36 (UniProt Q8N4N3) was tested. Which log2 fold change did it give?
Its log2 fold change is inactive: -0.052.

KPNA2 (UniProt P52292) was tested. Which log2 fold change did it give?
Its log2 fold change is inactive: 0.05.

How did the log2 fold change turn out when LARP1 (UniProt Q6PKG0) was run?
The log2 fold change was inactive: -0.024.

How did the log2 fold change turn out when KYAT1 (UniProt Q16773) was run?
Its log2 fold change is inactive: 0.025.

For KLHL20 (UniProt Q9Y2M5), which log2 fold change is on record?
Its log2 fold change is inactive: 0.129.

For LAMP2 (UniProt P13473), which log2 fold change is on record?
The log2 fold change was inactive: 0.018.

Which log2 fold change does the source give for KIF4A (UniProt O95239) here?
The log2 fold change was inactive: -0.006.

With KNSTRN (UniProt Q9Y448) as the target, how does the log2 fold change read?
The log2 fold change was inactive: -0.056.

For KLC4 isoform 3 (UniProt Q9NSK0), which log2 fold change is on record?
The log2 fold change was inactive: 0.001.

For KHK isoform 2 (UniProt P50053), which log2 fold change is on record?
Its log2 fold change is inactive: -0.163.

KLF16 (UniProt Q9BXK1) was tested. Which log2 fold change did it give?
Its log2 fold change is inactive: 0.207.

For KPTN (UniProt Q9Y664), which log2 fold change is on record?
Its log2 fold change is inactive: 0.016.

With KIAA0319L (UniProt Q8IZA0) as the target, how does the log2 fold change read?
Its log2 fold change is inactive: -0.012.

Which log2 fold change does the source give for KIF13A isoform 4 (UniProt Q9H1H9) here?
Its log2 fold change is inactive: 0.018.

Which log2 fold change does the source give for KIAA1324L (UniProt A8MWY0) here?
The log2 fold change was inactive: 0.057.

Which log2 fold change does the source give for KMT2D isoform 3 (UniProt O14686) here?
The log2 fold change was inactive: 0.013.

How did the log2 fold change turn out when KNTC1 (UniProt P50748) was run?
Its log2 fold change is inactive: 0.075.

How did the log2 fold change turn out when KIN (UniProt O60870) was run?
Its log2 fold change is inactive: 0.04.

With KIAA1522 isoform 2 (UniProt Q9P206) as the target, how does the log2 fold change read?
Its log2 fold change is inactive: 0.019.

How did the log2 fold change turn out when KIAA1191 (UniProt Q96A73) was run?
The log2 fold change was inactive: 0.006.

With KPNA6 (UniProt O60684) as the target, how does the log2 fold change read?
Its log2 fold change is inactive: 0.017.

Which log2 fold change does the source give for KIF5B (UniProt P33176) here?
Its log2 fold change is inactive: -0.048.

Which log2 fold change does the source give for KHDC4 (UniProt Q7Z7F0) here?
Its log2 fold change is inactive: -0.009.

How did the log2 fold change turn out when KDSR (UniProt Q06136) was run?
Its log2 fold change is inactive: 0.073.

KLC1 isoform 6 (UniProt Q07866) was tested. Which log2 fold change did it give?
Its log2 fold change is inactive: 0.005.

Which log2 fold change does the source give for LAMTOR4 (UniProt Q0VGL1) here?
Its log2 fold change is inactive: 0.147.

How did the log2 fold change turn out when LANCL1 (UniProt O43813) was run?
The log2 fold change was inactive: 0.033.

Which log2 fold change does the source give for LAMTOR3 (UniProt Q9UHA4) here?
Its log2 fold change is inactive: 0.062.

With LAP3 (UniProt P28838) as the target, how does the log2 fold change read?
Its log2 fold change is active: 0.331.

For KIF15 (UniProt Q9NS87), which log2 fold change is on record?
The log2 fold change was inactive: 0.033.

For KEAP1 (UniProt Q14145), which log2 fold change is on record?
The log2 fold change was inactive: 0.008.

For KYAT3 (UniProt Q6YP21), which log2 fold change is on record?
The log2 fold change was inactive: 0.071.
